According to the supplement of paper PMC9433722:
Counter-ions that a name gives are not always drawn. The list shows a part of the results. Many values rest on one well or one pass, so single values are uncertain.

Assays:
[1] = system: Saos-2; test: cell viability (CCK-8) relative to DMSO control (% of control); higher = less cytotoxic; conditions: 10 µM; 48 h
[2] = system: U2OS; test: as above; conditions: 10 µM; 48 h

| Compound | cell viability [1] | cell viability [2] |
| --- | --- | --- |
| COc1cc(C(=O)NCc2ccc(OCCN(C)C)cc2)cc(OC)c1OC [Trimethobenzamide·HCl] | 77.2 | 77.3 |
| Cc1nnc(SCC2=C(C(=O)O)N3C(=O)[C@@H](NC(=O)Cn4cnnn4)[C@H]3SC2)s1 [Cefazolin . sodium] | 121 | 90.8 |
| Cc1ccc(N(CC2=NCCN2)c2cccc(O)c2)cc1 [Phentolamine Hydrochloride] | 62.1 | 112 |
| CN1CCC[C@H]1c1cccnc1 [Nicotine] | 109 | 101 |
| COc1ccccc1OCC(O)CN1CCN(CC(=O)Nc2c(C)cccc2C)CC1 (configuration not stated) [Ranolazine·2HCl] | 66.8 | 107 |
| CO[C@H]1/C=C/O[C@@]2(C)Oc3c(C)c(O)c4c(O)c(c(/C=N/N5CCN(C6CCCC6)CC5)c(O)c4c3C2=O)NC(=O)/C(C)=C\C=C\[C@H](C)[C@H](O)[C@@H](C)[C@@H](O)[C@@H](C)[C@H](OC(C)=O)[C@@H]1C [Rifapentine] | 114 | 98.8 |
| C=CC1=C(C(=O)O)N2C(=O)[C@@H](NC(=O)/C(=N\O)c3csc(N)n3)[C@H]2SC1 [Cefdinir] | 117 | 89.1 |
| NS(=O)(=O)c1cc2c(cc1C(F)(F)F)NCNS2(=O)=O [Hydroflumethiazide] | 116 | 89.2 |
| COc1ccccc1OCC(O)COC(N)=O (configuration not stated) [Methocarbamol] | 101 | 109 |
| OCCOCCN1CCN(C2=Nc3ccccc3Sc3ccccc32)CC1 [Quetiapine Fumarate] | 57.6 | 96.4 |
| C[N+]1(C)[C@@H]2C[C@@H](OC(=O)C(O)(c3cccs3)c3cccs3)C[C@H]1[C@@H]1O[C@@H]12 [Tiotropium Bromide] | 63 | 99.8 |
| CN(C)c1cc(NC(=O)CNC(C)(C)C)c(O)c2c1C[C@H]1C[C@H]3[C@H](N(C)C)C(O)=C(C(N)=O)C(=O)[C@@]3(O)C(O)=C1C2=O [Tigecycline] | 107 | 94.5 |
| CC1(C)O[C@@H]2C[C@H]3[C@@H]4C[C@H](F)C5=CC(=O)C=C[C@]5(C)[C@@]4(F)[C@@H](O)C[C@]3(C)[C@]2(C(=O)CO)O1 [Fluocinolone Acetonide] | 67.7 | 103 |
| CCCNCC(O)COc1ccccc1C(=O)CCc1ccccc1 (configuration not stated) [Propafenone hydrochloride] | 61.2 | 120 |
| CCCc1nc(C(C)(C)O)c(C(=O)O)n1Cc1ccc(-c2ccccc2-c2nnn[nH]2)cc1 [Olmesartan] | 66.6 | 94.4 |
| CN(C)CCOC(=O)C(c1ccccc1)C1(O)CCCC1 (configuration not stated) [Cyclopentolate] | 110 | 91.6 |
| C1N2CN3CN1CN(C2)C3 [Methenamine Hippurate] | 95.6 | 105 |
| CO[C@H]1C[C@@H]2CC[C@@H](C)[C@@](O)(O2)C(=O)C(=O)N2CCCC[C@H]2C(=O)O[C@H]([C@H](C)C[C@@H]2CC[C@@H](O)[C@H](OC)C2)CC(=O)[C@H](C)/C=C(\C)[C@@H](O)[C@@H](OC)C(=O)[C@H](C)C[C@H](C)/C=C/C=C/C=C/1C [Rapamycin] | 52 | 66.8 |
| OCCN(CCO)c1nc(N2CCCCC2)c2nc(N(CCO)CCO)nc(N3CCCCC3)c2n1 [Dipyridamole] | 52.9 | 105 |
| CC(C)C(=O)Nc1ccc([N+](=O)[O-])c(C(F)(F)F)c1 [Flutamide] | 63.4 | 115 |
| CC(=O)O[C@H]1C(=O)[C@@]2(C)[C@H]([C@H](OC(=O)c3ccccc3)[C@]3(O)C[C@H](OC(=O)[C@H](O)[C@@H](NC(=O)c4ccccc4)c4ccccc4)C(C)=C1C3(C)C)[C@]1(OC(C)=O)CO[C@@H]1C[C@@H]2O [Paclitaxel] | 29.2 | 62.1 |
| COc1ccc(C[C@@H]2c3cc(OC)c(OC)cc3CC[N@+]2(C)CCC(=O)OCCCCCOC(=O)CC[N@@+]2(C)CCc3cc(OC)c(OC)cc3[C@H]2Cc2ccc(OC)c(OC)c2)cc1OC [Cisatracurium Besylate] | 96.2 | 92.8 |
| CO/N=C1\CN(c2nc3c(cc2F)c(=O)c(C(=O)O)cn3C2CC2)CC1CN (configuration not stated) [Gemifloxacin] | 104 | 85.4 |
| CN(C)CCc1c[nH]c2ccc(Cn3cncn3)cc12 [Rizatriptan Benzoate] | 104 | 100 |
| CC(CN(C)C)CN1c2ccccc2CCc2ccccc21 (configuration not stated) [Trimipramine Maleate] | 93.2 | 75 |
| N[C@@H](C(=O)N[C@@H]1C(=O)N2C(C(=O)O)=C(Cl)CS[C@H]12)c1ccccc1 [Cefaclor] | 113 | 64.1 |

Some of the entries so far, as labelled records.
CN(C)CCOC(=O)C(c1ccccc1)C1(O)CCCC1 (configuration not stated) [Cyclopentolate]
  cell viability [1]: 110; cell viability [2]: 91.6
C1N2CN3CN1CN(C2)C3 [Methenamine Hippurate]
  cell viability [1]: 95.6; cell viability [2]: 105
